Measured data: PubChem BioAssay AID720505 (Drosophila RNAi Screening Center, 2013)
In all, the deposit lists about 20,000 reagents; below is an unselected part of those that have a named target and a result. In the full data, about 2,100 (10%) were called active. 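Raw plate signals without normalisation; calls rest on control-based scores that were not deposited; replicate 2 separates called from uncalled poorly.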 The numbers tell different reagents against one gene apart. A plus sign joins genes that one reagent is predicted to hit. Reagent sequences are not shown. The record does not give: the amount of reagent, the time to read-out.

Assay: 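Fly regulators or components of the CRAC channel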 (primary screen)
Cell system: Drosophila S2R+ cells
Reagents: long dsRNA against Drosophila genes
Treatment: thapsigargin (2 µM) in calcium-free buffer to empty internal stores, then 2 mM calcium added back
Measured: 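Fluo-4 signal in 384-well plates read on a FLIPR after thapsigargin (2 µM, calcium-free) store depletion and 2 mM calcium add-back; unnormalised mean endpoint per well; screen run twice, selected wells retested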
Scale: calcium signal and retest calcium signal: higher = more calcium entry after store depletion
Rule for the call: 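Knock-downs counted as hits when calcium entry dropped relative to STIM1 positive and Rho1 negative controls present on each plate; roughly 1500 genes called, with reductions of differing size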
Meaning of the calls: active = called as lowering calcium entry; inactive = not called

| target gene | reagent no. | calcium signal, replicate 1 | calcium signal, replicate 2 | retest calcium signal, replicate 1 | retest calcium signal, replicate 2 | call |
| --- | --- | --- | --- | --- | --- | --- |
| GlcAT-S | 1 | 96.8 | 90.2 | – | – | inactive |
| CG17568 | 1 | 161 | 99.5 | 146 | 134 | inactive |
| lawc | 1 | 150 | 96.6 | – | – | inactive |
| lawc | 2 | 65 | 123 | – | – | inactive |
| Rh6 | 1 | 123 | 112 | – | – | inactive |
| sp3 | 1 | 157 | 92.7 | – | – | inactive |
| Frmd5 | 1 | 125 | 194 | – | – | inactive |
| asun | 1 | 135 | 216 | – | – | inactive |
| Cp18 | 1 | 105 | 67.3 | – | – | inactive |
| CG2519 | 1 | 113 | 130 | – | – | inactive |
| tna | 1 | 61.7 | 71.4 | – | – | inactive |
| tna | 2 | 98 | 135 | – | – | inactive |
| CG15024 | 1 | 81.7 | 67.1 | – | – | inactive |
| CG14491 | 1 | 143 | 126 | – | – | inactive |
| alphaTub85E | 1 | 68.3 | 98.8 | – | – | active |
| CG15143 | 1 | 127 | 139 | – | – | inactive |
| ste24c + CR30461 (retired record) | 1 | 162 | 88.8 | – | – | inactive |
| ste24c + CR30461 (retired record) | 2 | 152 | 135 | – | – | inactive |
| sle | 1 | 67.2 | 101 | – | – | active |
| CG12640 | 1 | 126 | 111 | – | – | inactive |
| Pxd | 1 | 145 | 142 | – | – | inactive |
| Pcl | 1 | 154 | 109 | – | – | inactive |
| PpN58A | 1 | 134 | 79.7 | – | – | inactive |
| temp | 1 | 99 | 175 | – | – | inactive |
| CG9281 | 1 | 107 | 121 | – | – | inactive |
| Hayan | 1 | 195 | 94.2 | 64.6 | 89.9 | inactive |
| Hayan | 2 | 74.2 | 182 | – | – | inactive |
| CG12523 | 1 | 77.8 | 75.7 | 5479 | 72.4 | inactive |
| Polr2G | 1 | 70.8 | 108 | – | – | active |
| mRpL42 | 1 | 111 | 87 | – | – | inactive |
| CG10750 | 1 | 128 | 108 | – | – | inactive |
| slgA | 1 | 174 | 86.8 | – | – | inactive |
| CG34228 | 1 | 100 | 80.8 | – | – | inactive |
| Mpv17 | 1 | 91 | 144 | – | – | inactive |
| CG30339 | 1 | 126 | 92.3 | – | – | inactive |
| PHDP | 1 | 123 | 202 | – | – | inactive |
| CG12992 | 1 | 90.5 | 122 | – | – | inactive |
| EloA | 1 | 173 | 347 | – | – | inactive |
| His4r | 1 | 106 | 60 | – | – | active |
| CG14397 | 1 | 176 | 73.3 | – | – | inactive |
| CG11037 | 1 | 102 | 136 | – | – | inactive |
| Crtc | 1 | 88.7 | 151 | – | – | inactive |
| Crtc | 2 | 85 | 171 | – | – | inactive |
| pdgy | 1 | 71.5 | 125 | – | – | inactive |
| pdgy | 2 | 171 | 110 | – | – | inactive |
| Ddr | 1 | 95.4 | 120 | – | – | inactive |
| Ddr | 2 | 100 | 149 | – | – | inactive |
| Ddr | 3 | 42.7 | 111 | – | – | active |
| Ddr | 4 | 199 | 110 | 97 | 84.3 | inactive |
| Ddr | 5 | 50.6 | 139 | – | – | active |
| Ddr | 6 | 68.7 | 96.3 | – | – | inactive |
| COX3 (retired record) | 1 | 216 | 89.7 | – | – | inactive |
| GstD8 | 1 | 211 | 174 | – | – | inactive |
| mthl5 | 1 | 186 | 98.7 | – | – | inactive |
| CG2681 | 1 | 131 | 161 | – | – | inactive |
| btv | 1 | 164 | 108 | – | – | inactive |
| btv | 2 | 115 | 135 | – | – | inactive |

Targets above whose target name begins with L or l (2):
| target gene | reagent no. | calcium signal, replicate 1 | calcium signal, replicate 2 | retest calcium signal, replicate 1 | retest calcium signal, replicate 2 | call |
| --- | --- | --- | --- | --- | --- | --- |
| lawc | 1 | 150 | 96.6 | – | – | inactive |
| lawc | 2 | 65 | 123 | – | – | inactive |
